According to the supplement of paper PMC4604168 (melanoma cell lines):
The list shows a part of the results. Many values rest on one well or one pass, so single values are uncertain.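 The apoptosis fraction was the count of cleaved-PARP antibody-stained nuclei relative to all DNA-stained nuclei, imaged in 1,536-well plates. Screening doses were set so most cells survived, and baseline and induced cleaved-PARP levels vary greatly across cell lines.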

The compounds below were run on UACC62 (assay: cleaved PARP positive nuclei fraction relative to DMSO control; melanoma cells; higher = more apoptosis). Details: library dose: low library concentration; 72 h.

| Structure (SMILES) | cleaved PARP positive nuclei fraction |
| --- | --- |
| CCN(CC)CCCCNc1ncc2cc(-c3cc(OC)cc(OC)c3)c(NC(=O)NC(C)(C)C)nc2n1 + COc1cc(N2CCC(N3CCN(C)CC3)CC2)ccc1Nc1ncc(Cl)c(Nc2ccccc2S(=O)(=O)C(C)C)n1 [NVP-TAE684] (first compound 0.1 µM, partner dose 0.08 µM) | 162% |
| O=C(Nc1ccccc1)c1cc([N+](=O)[O-])ccc1Cl + Cc1cc([N+](=O)[O-])ccc1NS(=O)(=O)c1cc(Cl)ccc1Cl [FH535] (first compound 2 µM, partner dose 1 µM) | 580% |
| COc1ccc(-c2ccc3c(N4CCOCC4)nc(N4C[C@@H](C)O[C@@H](C)C4)nc3n2)cc1CO + Cn1cc(/C=C2\C(=O)Nc3cccnc32)c2ccccc21 [GW441756] (first compound 0.02 µM, partner dose 0.4 µM) | 47.4% |
| COc1cc2c(Oc3ccc4[nH]c(C)cc4c3F)ncnc2cc1OCCCN1CCCC1 [cediranib] + O=c1cc(-c2cccc3c2Sc2ccccc2S3)oc(N2CCOCC2)c1 [KU55933] (first compound 0.4 µM, partner dose 1 µM) | 73.1% |
